Experimental data reported in US11230581B2, “Peptides and combination of peptides for use in immunotherapy against ovarian cancer and other cancers” (Immatics Biotechnologies GmbH, priority 2015, dated 2022).

Experiments:
ovarian cancer samples = test: Relative LC-MS quantitation of HLA-presented peptides: presentation and over-presentation on ovarian cancer vs a panel of normal tissues (presentation score); parameters: species or system human; key: +++: very highly over-presented on tumors compared to a panel of normal tissues; ++: highly over-presented on tumors compared to a panel of normal tissues; +: over-presented on tumors compared to a panel of normal tissues; settings: over-presentation on tumors compared to a panel of normal tissues
additional tumor types = test: LC-MS detection and over-presentation of the peptides on additional tumor types, cell lines and primary cultures; parameters: species or system human; settings: for Other relevant organs/ cancerous diseases: Table 4A: additional tumor types on which the peptide was found, over-presented on more than 5% of measured tumor samples, or presented on more than 5% with ratio of geometric means tumor vs normal tissues larger than 3
[1] = amendment of Table 4: additional tumor types showing over-presentation (including specific presentation) on more than 5% of measured tumor samples, or presentation on more than 5% with ratio of geometric means tumor vs normal tissues larger than 3
[2] = additional tumor types with over-presentation on more than 5% of the measured tumor samples, or presentation on more than 5% with ratio of geometric means tumor vs normal tissues larger than 3

Row | Substance | Peptide Presentation (presentation score) (ovarian cancer samples) | Additional organs/cancerous diseases (additional tumor types; [1]) | Other relevant organs/ cancerous diseases (additional tumor types) | Additional organs/cancerous diseases (additional tumor types; [2])
1 | 180 (FQIDPHSGLVTV; listed as Homo sapiens) [compound 180] | +++ | SCLC |  | 
2 | 42 (VLLQKIVSA; listed as Homo sapiens) [compound 42] | +++ | Esophageal Cancer, AML |  | 
3 | 332 (YLISELEAA; listed as Homo sapiens) [compound 332] | + |  | Brain Cancer, HCC, PC, PrC, Esophageal Cancer, Uterine Cancer | RCC, GC, BRCA, Melanoma
4 | 57 (TLAELQPPVQL; listed as Homo sapiens) [compound 57] | +++ | CLL, Urinary Bladder Cancer, Uterine Cancer, Gallbladder Cancer and Bile Duct Cancer, NHL, HNSCC | NSCLC, SCLC, HCC, Leukemia, Melanoma, Esophageal Cancer | 
5 | 543 (GLLPTPITQQASL; listed as Homo sapiens) [compound 543] | + |  | Esophageal Cancer | BRCA
6 | 334 (TLTKVLVAL; listed as Homo sapiens) [compound 334] | + |  | Urinary bladder Cancer | CLL
7 | 439 (YLLQEIYGI; listed as Homo sapiens) [compound 439] | +++ |  | SCLC, BrCa | AML
8 | 539 (ALFDAQAQV; listed as Homo sapiens) [compound 539] | ++ |  | NSCLC, SCLC, Brain Cancer, HCC, PC, PrC, BrCa, Esophageal Cancer, Urinary bladder Cancer, Uterine Cancer, Gallbladder Cancer, Bile Duct Cancer | Melanoma, AML
9 | 185 (FLIDDKGYTL; listed as Homo sapiens) [compound 185] | +++ | HNSCC |  | 
10 | 375 (SLTETIEGV; listed as Homo sapiens) [compound 375] | +++ |  | BrCa, Esophageal Cancer | Gallbladder Cancer and Bile Duct Cancer
11 | 139 (SVMEVNSGIYRV; listed as Homo sapiens) [compound 139] | +++ | SCLC, CLL, Urinary Bladder Cancer, Uterine Cancer, Gallbladder Cancer and Bile Duct Cancer, NHL, HNSCC | HCC, MCC | 
12 | 477 (ALLPASGQIAL; listed as Homo sapiens) [compound 477] | +++ |  | NSCLC, HCC, Esophageal Cancer, Urinary bladder Cancer | CLL, BRCA, Melanoma, Gallbladder Cancer and Bile Duct Cancer, HNSCC
13 | 177 (YLLPEEYTSTL; listed as Homo sapiens) [compound 177] | +++ | NHL, HNSCC | Melanoma, Esophageal Cancer | 
14 | 213 (VTAAYMDTVSL; listed as Homo sapiens) [compound 213] | ++ |  | NSCLC, SCLC, HCC, Melanoma, Esophageal Cancer, Gallbladder Cancer, Bile Duct Cancer | 
15 | 199 (ALQDVPLSSV; listed as Homo sapiens) [compound 199] | +++ |  | Melanoma | SCLC, Urinary Bladder Cancer
16 | 358 (ALDEYTSEL; listed as Homo sapiens) [compound 358] | + |  | Brain Cancer, PC, Leukemia, BrCa, Uterine Cancer | Urinary Bladder Cancer
17 | 152 (ILFEDIFDV; listed as Homo sapiens) [compound 152] | +++ | BRCA, Gallbladder Cancer and Bile Duct Cancer | SCLC, Endometrium | 
18 | 146 (SLATAGDGLIEL; listed as Homo sapiens) [compound 146] | +++ | BRCA | Urinary bladder, Endometrium | 
19 | 343 (SLLEVNEESTV; listed as Homo sapiens) [compound 343] | + |  | NSCLC, Leukemia, Melanoma | CLL
20 | 356 (KLLGKLPEL; listed as Homo sapiens) [compound 356] | ++ |  | NSCLC, CRC, Esophageal Cancer | Melanoma, Urinary Bladder Cancer
21 | 545 (LLADLLHNV; listed as Homo sapiens) [compound 545] | + |  | NSCLC, SCLC, Colon, Rectum | BRCA

Row | Substance | Peptide Presentation (presentation score) (ovarian cancer samples) | Additional organs/cancerous diseases (additional tumor types; [1]) | Other relevant organs/ cancerous diseases (additional tumor types) | Additional organs/cancerous diseases (additional tumor types; [2])
22 | 60 (SLTIDGIYYV; listed as Homo sapiens) [compound 60] | +++ | BRCA, Uterine Cancer | SCLC, Prostate, Leukemia | 
23 | 359 (YLLPESVDL; listed as Homo sapiens) [compound 359] | + |  | NSCLC, CRC, HCC, Esophageal Cancer | CLL, Uterine Cancer, NHL, HNSCC
24 | 428 (KLGHTDILVGV; listed as Homo sapiens) [compound 428] | ++ |  | NSCLC, SCLC, CRC, HCC, Leukemia | CLL, Uterine Cancer, HNSCC
25 | 161 (ALLEGVNTV; listed as Homo sapiens) [compound 161] | +++ | AML | NSCLC, Leukemia | 
26 | 26 (ALLELAEEL; listed as Homo sapiens) [compound 26] | +++ | BRCA, Melanoma, Urinary Bladder Cancer, Uterine Cancer, Gallbladder Cancer and Bile Duct Cancer, AML, NHL, HNSCC | Leukemia, Esophageal Cancer | 
27 | 308 (SQYSGQLHEV; listed as Homo sapiens) [compound 308] | + |  | Leukemia, Gallbladder, Bile duct | CLL
28 | 489 (KMWEELPEVV; listed as Homo sapiens) [compound 489] | +++ |  | NSCLC, HCC, Leukemia | CLL, Esophageal Cancer, Urinary Bladder Cancer, AML, NHL, HNSCC
29 | 424 (TLLDALYEI; listed as Homo sapiens) [compound 424] | + |  | RCC, Esophageal Cancer, Endometrium | Melanoma, Gallbladder Cancer and Bile Duct Cancer, AML, HNSCC
30 | 482 (SLAPAGIADA; listed as Homo sapiens) [compound 482] | +++ |  |  | Melanoma, Uterine Cancer, HNSCC
31 | 10 (FLATFPLAAV; listed as Homo sapiens) [compound 10] | +++ |  | Urinary bladder Cancer | 
32 | 78 (SLFSSLEPQIQPV; listed as Homo sapiens) [compound 78] | +++ | CLL, Melanoma, Urinary Bladder Cancer, AML, HNSCC |  | 
33 | 527 (FLLEPGNLEV; listed as Homo sapiens) [compound 527] | +++ |  | Urinary bladder Cancer | 
34 | 479 (SLFGNSGILENV; listed as Homo sapiens) [compound 479] | + |  | NSCLC, SCLC, HCC, MCC, Urinary bladder Cancer | Melanoma, Uterine Cancer, AML, HNSCC
35 | 274 (SLLFSLFEA; listed as Homo sapiens) [compound 274] | + |  |  | Urinary Bladder Cancer, AML, NHL
36 | 431 (SLVNVVPKL; listed as Homo sapiens) [compound 431] | + |  | NSCLC, SCLC, RCC, Brain Cancer, Melanoma, Esophageal Cancer | CLL, BRCA, Urinary Bladder Cancer, Gallbladder Cancer and Bile Duct Cancer, AML, NHL
37 | 590 (SLIEKLWQT; listed as Homo sapiens) [compound 590] | + |  | SCLC, Brain Cancer | Uterine Cancer, AML
38 | 20 (RMIEYFIDV; listed as Homo sapiens) [compound 20] | +++ |  | SCLC, HCC, MCC | 
39 | 240 (ILLEQAFYL; listed as Homo sapiens) [compound 240] | +++ |  | SCLC | 
40 | 197 (ALGPEGGRV; listed as Homo sapiens) [compound 197] | ++ |  | HCC | Uterine Cancer
41 | 403 (KLYDRILRV; listed as Homo sapiens) [compound 403] | ++ |  | NSCLC, RCC | BRCA
